Values from PubChem BioAssay AID1159584 (Peter MacCallum Cancer Centre, 2016).
Purpose: 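Genes that CDH1-null MCF10A cells selectively depend on to survive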 (primary screen). System: human MCF10A breast epithelial cells, parental and CDH1-null. Reagent: siRNA against human genes. Measured: 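ATP luminescence (CellTiter-Glo) viability per line relative to mean mock wells over all plates, and the ratio of CDH1-null to parental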. Reading the numbers: CDH1-null / parental viability ratio: higher = CDH1-null cells survive relatively better than parental.
In all, the deposit lists about 18,000 reagents; this is a random part of them. Further read-outs or replicates are left out here. Not stated in the record: the amount of reagent, the time to read-out.

XKR5 (XK related 5)
- CDH1-null / parental viability ratio: 0.95

DTYMK (deoxythymidylate kinase)
- CDH1-null / parental viability ratio: 0.96

CCDC184 (coiled-coil domain containing 184)
- CDH1-null / parental viability ratio: 1

VIM (vimentin)
- CDH1-null / parental viability ratio: 0.89

RBMY1A1 (RNA binding motif protein Y-linked family 1 member A1)
- CDH1-null / parental viability ratio: 1.17

STIL (STIL centriolar assembly protein)
- CDH1-null / parental viability ratio: 0.8

SPOCD1 (SPOC domain containing 1)
- CDH1-null / parental viability ratio: 1.17

PRDX1 (peroxiredoxin 1)
- CDH1-null / parental viability ratio: 1.28

POLR2C (RNA polymerase II subunit C)
- CDH1-null / parental viability ratio: 2.33

UROC1 (urocanate hydratase 1)
- CDH1-null / parental viability ratio: 1.13

AFDN-DT (AFDN divergent transcript)
- CDH1-null / parental viability ratio: 0.98

CREB5 (cAMP responsive element binding protein 5)
- CDH1-null / parental viability ratio: 0.93

GGNBP2 (gametogenetin binding protein 2)
- CDH1-null / parental viability ratio: 1.07

FNDC9 (fibronectin type III domain containing 9)
- CDH1-null / parental viability ratio: 1.17

IL12A (interleukin 12A)
- CDH1-null / parental viability ratio: 0.81

NKAIN2 (sodium/potassium transporting ATPase interacting 2)
- CDH1-null / parental viability ratio: 1.17

GJA10 (gap junction protein alpha 10)
- CDH1-null / parental viability ratio: 0.97

FAM163A (family with sequence similarity 163 member A)
- CDH1-null / parental viability ratio: 0.98

TADA1 (transcriptional adaptor 1)
- CDH1-null / parental viability ratio: 0.91

NEU4 (neuraminidase 4)
- CDH1-null / parental viability ratio: 1.04

B3GALT6 (beta-1,3-galactosyltransferase 6)
- CDH1-null / parental viability ratio: 0.87

KMT5A (lysine methyltransferase 5A)
- CDH1-null / parental viability ratio: 0.9

BHLHA15 (basic helix-loop-helix family member a15)
- CDH1-null / parental viability ratio: 1.13

LARP4B (La ribonucleoprotein 4B)
- CDH1-null / parental viability ratio: 0.98

TBCD (tubulin folding cofactor D)
- CDH1-null / parental viability ratio: 1.04

ZNF577 (zinc finger protein 577)
- CDH1-null / parental viability ratio: 1.14

ARHGAP9 (Rho GTPase activating protein 9)
- CDH1-null / parental viability ratio: 0.89

TNFRSF10C (TNF receptor superfamily member 10c)
- CDH1-null / parental viability ratio: 1.2

ZDHHC8 (zDHHC palmitoyltransferase 8)
- CDH1-null / parental viability ratio: 1.33

HLF (HLF transcription factor, PAR bZIP family member)
- CDH1-null / parental viability ratio: 1.03

RRAD
- CDH1-null / parental viability ratio: 0.89

CARNMT1 (carnosine N-methyltransferase 1)
- CDH1-null / parental viability ratio: 0.83

U2SURP (U2 snRNP associated SURP domain containing)
- CDH1-null / parental viability ratio: 0.91

AZI2 (5-azacytidine induced 2)
- CDH1-null / parental viability ratio: 0.92

SEC62 (SEC62 preprotein translocation factor)
- CDH1-null / parental viability ratio: 1

Targets listed so far whose target name begins with P or p:
PRDX1 (peroxiredoxin 1)
- CDH1-null / parental viability ratio: 1.28

POLR2C (RNA polymerase II subunit C)
- CDH1-null / parental viability ratio: 2.33
